# In patent US5981698A, “Antimicrobial polypeptides” (CyberChemics, Inc., priority 1997, dated 1999):
# At least one peptide structure holds a part that was inferred or is arguable (an end, a ring closure or a residue). Peptide text beside a SMILES is read from it.
# Test system: representative bacteria, yeast and fungi
# Experiment: Antimicrobial action (general statement)
# Type: cell-based
# Details: peptide alone
# Description: Table III lists the minimum inhibitory concentration (ug/mL) for the various organisms assayed in Mueller-Hinton growth media. Details of the microbiological techniques employed are available to those skilled in the art, for instance from the American Type Tissue Culture Catalog (ATCC, Maryland) or DIFCO Manual, 10th Edition, 1984, pp. 78-80. For instance, a cultured solution of the bacterial strains Escherichia coli (American Tissue Culture Collection, Maryland) ATCC […] and Pseudomonas aeruginosa ATCC 27853 can be tested to model Gram-negative bacteria. Bacteria were grown overnight at 37 C. in Mueller-Hinton broth, reinoculated and incubated at 37 C. to reach the exponential phase of bacterial growth [i.e. a final bacterial suspension cantaining from 100,000 to 500,000 colony-forming units [(CFU)/ml]. […]
# Table III lists the approximate pharmacokinetics of synthetic peptides described in the present invention which solubilize readily, persist in conformationally active secondary structures in vivo, and induce lysis of representative bacteria, yeast and fungi. These determinations derive from optical density readings (O.D.) and rely on spectrophotometric absorbance from known initial concentrations as reference standards. […]
structure (smiles),measurement,value
"CC[C@H](C)[C@H](NC(=O)[C@H](CC(C)C)NC(=O)[C@H](CC(N)=O)NC(=O)[C@H](CCCNC(=N)N)NC(=O)[C@H](CC(C)C)NC(=O)[C@H](CCC(=O)O)NC(=O)[C@H](CO)NC(=O)[C@H](CC(C)C)NC(=O)[C@@H](NC(=O)[C@H](CCCNC(=N)N)NC(=O)[C@H](CCCCN)NC(=O)CNC(=O)[C@@H](NC(=O)[C@H](CC(C)C)NC(=O)[C@H](CO)NC(=O)CNC(=O)[C@@H](N)C(C)C)C(C)C)[C@@H](C)CC)C(N)=O [SEQ. ID 2, VGSLVGKRILSELRNLI] (H-VGSLVGKRILSELRNLI-NH2)",antimicrobial action,lacks antimicrobial action
